Consider one molecule from article PMC13360168.

Sequences of proteins named here, by UniProt entry; tags and fusion partners are left off.
UniProt Q9SXZ2: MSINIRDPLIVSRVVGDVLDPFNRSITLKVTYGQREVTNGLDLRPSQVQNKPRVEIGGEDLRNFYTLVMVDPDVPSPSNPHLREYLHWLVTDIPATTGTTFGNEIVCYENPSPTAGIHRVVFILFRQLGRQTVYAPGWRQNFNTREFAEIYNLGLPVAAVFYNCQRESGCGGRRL

The test has as its target FLOWERING LOCUS T (FT) (Arabidopsis thaliana) (UniProt Q9SXZ2). The experiment in a line: two-hybrid; Matchmaker GAL4 Two-Hybrid System (Clontech); CLF in pGADT7, FT in pGBKT7; yeast strain AH109; growth on solid synthetic medium without leucine, tryptophan, histidine and adenine.

Results are given in words; binding and its absence hold for the method and conditions named. Some binding calls cover weakened binding; strength is not graded here.

B1: CURLY LEAF (CLF) (protein, UniProt P93831 1-902)
chain: MASEASPSSSATRSEPPKDSPAEERGPASKEVSEVIESLKKKLAADRCISIKKRIDENKKNLFAITQSFMRSSMERGGSCKDGSDLLVKRQRDSPGMKSGIDESNNNRYVEDGPASSGMVQGSSVPVKISLRPIKMPDIKRLSPYTTWVFLDRNQRMTEDQSVVGRRRIYYDQTGGEALICSDSEEEAIDDEEEKRDFLEPEDYIIRMTLEQLGLSDSVLAELASFLSRSTSEIKARHGVLMKEKEVSESGDNQAESSLLNKDMEGALDSFDNLFCRRCLVFDCRLHGCSQDLIFPAEKPAPWCPPVDENLTCGANCYKTLLKSGRFPGYGTIEGKTGTSSDGAGTKTTPTKFSSKLNGRKPKTFPSESASSNEKCALETSDSENGLQQDTNSDKVSSSPKVKGSGRRVGRKRNKNRVAERVPRKTQKRQKKTEASDSDSIASGSCSPSDAKHKDNEDATSSSQKHVKSGNSGKSRKNGTPAEVSNNSVKDDVPVCQSNEVASELDAPGSDESLRKEEFMGETVSRGRLATNKLWRPLEKSLFDKGVEIFGMNSCLIARNLLSGFKSCWEVFQYMTCSENKASFFGGDGLNPDGSSKFDINGNMVNNQVRRRSRFLRRRGKVRRLKYTWKSAAYHSIRKRITEKKDQPCRQFNPCNCKIACGKECPCLLNGTCCEKYCGCPKSCKNRFRGCHCAKSQCRSRQCPCFAADRECDPDVCRNCWVIGGDGSLGVPSQRGDNYECRNMKLLLKQQQRVLLGISDVSGWGAFLKNSVSKHEYLGEYTGELISHKEADKRGKIYDRENCSFLFNLNDQFVLDAYRKGDKLKFANHSPEPNCYAKVIMVAGDHRVGIFAKERILAGEELFYDYRYEPDRAPAWAKKPEAPGSKKDENVTPSVGRPKKLA
As for B1, the binding entry is listed as “binds”.
